From PubChem BioAssay AID651768 (National Center for Advancing Translational Sciences (NCATS), 2012)
Hit rate of the full screen: of about 360,000 compounds, about 1,700 (0.47%) were called active. The shares of active, inactive and inconclusive entries below differ from those in the screen. Calls come from the whole dose curve; as a rule, active = well fitted inhibition curve with a large enough effect; inconclusive = small, poorly fitted or top-dose-only effect; inactive = no such curve, though single readings can be large or run the other way. Potencies beside an inconclusive call are fits to weak or partial responses and may not hold up.

By UniProt entry, the sequences of proteins in these tests, tags left out.
UniProt Q14191, whole entry, looked up: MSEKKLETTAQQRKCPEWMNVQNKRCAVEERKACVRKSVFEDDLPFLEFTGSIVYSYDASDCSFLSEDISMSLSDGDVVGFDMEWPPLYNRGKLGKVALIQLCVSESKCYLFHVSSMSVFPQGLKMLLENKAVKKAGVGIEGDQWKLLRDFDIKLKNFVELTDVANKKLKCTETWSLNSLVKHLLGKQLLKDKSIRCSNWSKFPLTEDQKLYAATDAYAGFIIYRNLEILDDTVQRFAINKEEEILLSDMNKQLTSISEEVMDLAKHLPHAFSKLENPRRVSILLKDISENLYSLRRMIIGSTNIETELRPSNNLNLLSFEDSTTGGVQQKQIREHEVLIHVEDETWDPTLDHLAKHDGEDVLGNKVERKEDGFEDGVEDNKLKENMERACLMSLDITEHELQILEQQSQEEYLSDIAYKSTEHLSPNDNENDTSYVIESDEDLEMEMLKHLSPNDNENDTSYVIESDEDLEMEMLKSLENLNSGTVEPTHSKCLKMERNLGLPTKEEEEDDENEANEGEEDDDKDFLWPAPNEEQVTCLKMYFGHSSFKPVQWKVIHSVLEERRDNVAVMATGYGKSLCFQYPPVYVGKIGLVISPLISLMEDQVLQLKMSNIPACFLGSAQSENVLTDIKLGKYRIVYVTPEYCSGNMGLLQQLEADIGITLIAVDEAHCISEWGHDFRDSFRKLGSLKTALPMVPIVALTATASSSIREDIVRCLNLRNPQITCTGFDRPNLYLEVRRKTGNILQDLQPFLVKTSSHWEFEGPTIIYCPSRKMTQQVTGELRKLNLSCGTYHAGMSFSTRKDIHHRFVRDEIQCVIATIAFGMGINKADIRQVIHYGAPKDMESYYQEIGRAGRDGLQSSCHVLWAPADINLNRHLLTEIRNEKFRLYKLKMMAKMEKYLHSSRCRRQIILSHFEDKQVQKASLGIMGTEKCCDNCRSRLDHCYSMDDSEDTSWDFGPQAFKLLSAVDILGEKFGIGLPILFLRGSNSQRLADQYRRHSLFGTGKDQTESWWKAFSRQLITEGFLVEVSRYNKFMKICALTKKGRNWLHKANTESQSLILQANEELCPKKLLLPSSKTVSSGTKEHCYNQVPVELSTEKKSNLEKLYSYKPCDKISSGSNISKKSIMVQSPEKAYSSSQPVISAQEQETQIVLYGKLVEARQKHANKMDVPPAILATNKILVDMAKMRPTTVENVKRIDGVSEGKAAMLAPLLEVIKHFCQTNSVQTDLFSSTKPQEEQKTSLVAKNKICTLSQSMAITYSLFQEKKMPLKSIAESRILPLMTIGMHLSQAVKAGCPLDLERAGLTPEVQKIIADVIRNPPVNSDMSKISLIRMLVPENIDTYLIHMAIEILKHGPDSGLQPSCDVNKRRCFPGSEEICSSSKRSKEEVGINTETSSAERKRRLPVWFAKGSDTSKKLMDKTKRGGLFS

Biological target: Bifunctional 3'-5' exonuclease/ATP-dependent helicase WRN (Homo sapiens) (UniProt Q14191)
Experiment: qHTS for Inhibitors of WRN Helicase; note: nearly all actives have a fitted effect of over 55% in size
Settings: WRN helicase unwinding, fluorescent forked duplex, kinetic; activity change, negative = inhibition: at 114 µM (top of the series) unless noted
Outline: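 WRN at 20 nM final preincubated with compound 15 min at room temperature; reaction started with 100 nM fluorophore/quencher forked duplex oligonucleotide and 2 mM ATP final. Unwinding followed kinetically by red fluorescence (ex 525, em 598 nm).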
% is set by controls: 0 for no effect and ±100 for the full control effect; potency is the fitted concentration of half-maximal effect.

| SMILES | Potency | activity change, negative = inhibition |
| --- | --- | --- |
| Cc1ccc(N2CCN(S(=O)(=O)c3ccc4oc(=O)ccc4c3)CC2)c(C)c1 | inactive |  |
| COc1cc(/C=C2/C(=O)NN(c3cccc(F)c3)C2=O)ccc1OC(=O)c1ccco1 | active: 50.1 µM |  |
| O=C(COC(=O)c1ccc([N+](=O)[O-])s1)NCCc1ccccc1 | inactive |  |
| CN(Cc1ccccc1F)Cc1cc(=O)oc2cc(O)c(Cl)cc12 | inactive |  |
| CCOC(=O)Cc1csc(/N=C/c2c(O)n(-c3ccc(C)cc3C)c(=O)c3ccccc23)n1 | inconclusive: 10 µM [inhibitor, partial curve] |  |
| Oc1ccc(F)c2cccnc12 | inactive |  |
| O=C(C=P(c1ccccc1)(c1ccccc1)c1ccccc1)c1ccccc1-c1ccccc1C(=O)C=P(c1ccccc1)(c1ccccc1)c1ccccc1 | inconclusive: 44.7 µM [inhibitor, partial curve] |  |
| Cc1cc(C(F)(F)F)c(C#N)c(SCC(=O)Nc2nc3ccccc3s2)n1 | inconclusive: 100 µM [inhibitor, single point] |  |
| COc1ccc([C@H]2C[C@H](O)C[C@@H](CCn3cc(-c4ccccc4)nn3)O2)cc1 | inactive |  |
| O=C(Nc1ncccc1O)c1ccc(NS(=O)(=O)c2ccc3[nH]c(=O)[nH]c3c2)cc1 | inconclusive: 39.8 µM [inhibitor, single point] |  |
| Cc1nc2cc(C(=O)O)ccc2s1 | inactive |  |
| O=C(c1ccccc1)[C@@H]1[C@@H](C(=O)c2ccc(F)cc2)[C@@]2(C(=O)Nc3ccccc32)[C@H]2c3ccccc3C=CN12 | inconclusive: 11.2 µM [inhibitor, partial curve] |  |
| O=C1NN(c2ccccc2)C(=O)/C1=C/c1ccc(Sc2ccc(Cl)cc2)o1 | inconclusive: 63.1 µM [inhibitor, partial curve] |  |
| C#CCOc1ccc(OC)cc1C(c1c(C)[nH][nH]c1=O)c1c(C)[nH][nH]c1=O | inactive |  |
| Cc1ccc(Nc2nc3ccccc3o2)cc1F | inconclusive: 89.1 µM [inhibitor, single point] |  |
| Cc1ccc2nc(SCC(=O)NCc3ccco3)c(C#N)cc2c1 | inactive |  |
| Cc1ccc(-n2nc3c(c2NC(=O)c2c(F)cccc2Cl)CS(=O)(=O)C3)cc1C | inconclusive: 79.4 µM [inhibitor, single point] |  |
| COc1ccc(CCNC(=O)CCc2nc3sc4c(c3c(=O)[nH]2)CCCC4)cc1 | inactive |  |
| CN(C)c1ccc(/C=C/C=C2/SC(=S)N(c3ccccc3)C2=O)cc1 | inconclusive: 100 µM [inhibitor, single point] |  |
| COc1ccc(C(=O)C[n+]2cccc(Br)c2)cc1 | inconclusive: 39.8 µM [inhibitor, single point] |  |
| CCOc1cccc(CNc2ccc(O)cc2)c1OCc1ccc(Cl)cc1 | inconclusive: 50.1 µM [inhibitor, partial curve] |  |
| CCCCCNC(=O)C(c1cc2ccccc2o1)n1c(=O)c(-c2ccco2)nc2ccccc21 (stereo not given) | inconclusive: 39.8 µM [inhibitor, full curve, poor fit] |  |
| O=C(NCCCCCCCN1CCCCCCC1)C(C1CCCCC1)C1CCCCC1 | inconclusive: 17.8 µM [inhibitor, single point] |  |

| SMILES | Potency | activity change, negative = inhibition |
| --- | --- | --- |
| O=S(=O)(O)c1nc2ccccc2n1CCOc1ccccc1 | inactive |  |
| Cc1ccc(NC(=O)CN(C)CC(=O)Nc2ccccc2Oc2ccccc2)cc1 | inconclusive: 28.2 µM [inhibitor, full curve] |  |
| CC(=O)Nc1cc(-c2ccc(CO)cc2)cn2c(-c3ccc(F)c(Cl)c3)cnc12 | inactive |  |
| O=C(Nc1ncc(C(F)(F)F)cc1Cl)C1COc2ccccc2O1 (stereo not given) | inconclusive: 89.1 µM [inhibitor, single point] |  |
| Cc1cc(=O)oc2cc(OCC(=O)Nc3c(Cl)cccc3C(F)(F)F)ccc12 | inconclusive: 39.8 µM [inhibitor, full curve, poor fit] |  |
| CCOC(=O)CC(NC(=O)c1ccc(C)cc1)c1ccc(OC)cc1 (stereo not given) | inactive |  |
| Cc1cc(NC(=O)CN2C(=O)NC3(CCC(C)CC3)C2=O)no1 (stereo not given) | inconclusive: 25.1 µM [inhibitor, single point] |  |
| CC(=O)N1CCOc2ccc(S(=O)(=O)NCCc3ccc(S(N)(=O)=O)cc3)cc21 | inactive |  |
| NS(=O)(=O)c1ccc2nc(NC(=O)Nc3ccccc3F)sc2c1 | inconclusive: 89.1 µM [inhibitor, single point] |  |
| CCOC(=O)c1c(C)nc(C)c(C(=O)OCC)c1-c1ccco1 | inconclusive: 39.8 µM [inhibitor, single point] |  |
| O=c1[nH]n2c(=O)c3c([nH]c2c1N=Nc1cccc(Cl)c1)CCCC3 | inconclusive: 16.8 µM [inhibitor, partial curve] |  |
| O=c1cc(CSc2nc3cc(Cl)ccc3o2)nc2sccn12 | inconclusive: 89.1 µM [inhibitor, single point] |  |
| COc1ccc(OC)c(NC(=O)CCNS(=O)(=O)c2ccc3c(c2)oc(=O)n3C)c1 | inconclusive: 11.2 µM [inhibitor, partial curve] |  |
| CCCc1cc(=O)[nH]c(SCC(=O)c2ccc3c(c2)NC(=O)CO3)n1 | inactive |  |
| CCC(CC)c1nnc(NC(=O)COc2ccc3c(C)cc(=O)oc3c2)s1 | inactive |  |
| COc1ccc(CCN2C(=O)c3cccc4cccc(c34)C2=O)cc1OC | inactive |  |
| CCc1ccc(NC(=O)C(C)OC(=O)c2ccc(NS(=O)(=O)c3ccc(C)c([N+](=O)[O-])c3)cc2)cc1 (stereo not given) |  | inactive: -2.22% [at 11.6 µM] |
| COc1cccc(C(=O)/C=C/Nc2ccc(S(=O)(=O)Nc3cc(OC)nc(OC)n3)cc2)c1 | inconclusive: 79.4 µM [inhibitor, partial curve] |  |
| CC1=C(C(N)=O)C(c2cccs2)n2nc(-c3cccc(Cl)c3)nc2N1 (stereo not given) | inactive |  |
| O=C(C1CCN(Cc2ccccc2O)CC1)N1CCN(Cc2ccc3c(c2)OCO3)CC1 | inconclusive: 89.1 µM [inhibitor, single point] |  |
| CC(C)Oc1ccc(C(=O)CCN2CCCCC2)cc1 | inconclusive: 56.2 µM [inhibitor, partial curve] |  |
| Nc1nc(-c2ccccc2)[nH]c(=O)c1N | inconclusive: 12.6 µM [inhibitor, partial curve] |  |

14 of the compounds above, with bars between the fields.
SMILES | Potency | activity change, negative = inhibition
CC(=O)N1CCOc2ccc(S(=O)(=O)NCCc3ccc(S(N)(=O)=O)cc3)cc21 | inactive | 
NS(=O)(=O)c1ccc2nc(NC(=O)Nc3ccccc3F)sc2c1 | inconclusive: 89.1 µM [inhibitor, single point] | 
CCOC(=O)c1c(C)nc(C)c(C(=O)OCC)c1-c1ccco1 | inconclusive: 39.8 µM [inhibitor, single point] | 
O=c1[nH]n2c(=O)c3c([nH]c2c1N=Nc1cccc(Cl)c1)CCCC3 | inconclusive: 16.8 µM [inhibitor, partial curve] | 
O=c1cc(CSc2nc3cc(Cl)ccc3o2)nc2sccn12 | inconclusive: 89.1 µM [inhibitor, single point] | 
COc1ccc(OC)c(NC(=O)CCNS(=O)(=O)c2ccc3c(c2)oc(=O)n3C)c1 | inconclusive: 11.2 µM [inhibitor, partial curve] | 
CCCc1cc(=O)[nH]c(SCC(=O)c2ccc3c(c2)NC(=O)CO3)n1 | inactive | 
CCC(CC)c1nnc(NC(=O)COc2ccc3c(C)cc(=O)oc3c2)s1 | inactive | 
COc1ccc(CCN2C(=O)c3cccc4cccc(c34)C2=O)cc1OC | inactive | 
CCc1ccc(NC(=O)C(C)OC(=O)c2ccc(NS(=O)(=O)c3ccc(C)c([N+](=O)[O-])c3)cc2)cc1 (stereo not given) |  | inactive: -2.22% [at 11.6 µM]
COc1cccc(C(=O)/C=C/Nc2ccc(S(=O)(=O)Nc3cc(OC)nc(OC)n3)cc2)c1 | inconclusive: 79.4 µM [inhibitor, partial curve] | 
CC1=C(C(N)=O)C(c2cccs2)n2nc(-c3cccc(Cl)c3)nc2N1 (stereo not given) | inactive | 
O=C(C1CCN(Cc2ccccc2O)CC1)N1CCN(Cc2ccc3c(c2)OCO3)CC1 | inconclusive: 89.1 µM [inhibitor, single point] | 
CC(C)Oc1ccc(C(=O)CCN2CCCCC2)cc1 | inconclusive: 56.2 µM [inhibitor, partial curve] | 
